Assay results from patent publication US20100056611A1.
The structures given here were assigned with low confidence; some may be wrong.

How the values were obtained:
MDCK-CA IX cells = experiment: Binding of fluorescent CA inhibitor (FITC-CAI) to MDCK-CA IX cells; conditions: 48 h
CA IX = CA IX (Homo sapiens, UniProt Q16790); conditions: read-out: KI value towards CA IX; cited from earlier work

## NS(=O)(=O)c1ccc(CNC(=S)Nc2ccc3c(c2)C(=O)OC32c3ccc(O)cc3Oc3cc(O)ccc32)cc1
MDCK-CA IX cells
  FITC-CAI binding to cells, hypoxia versus normoxia: bound only to hypoxic cells
CA IX
  Ki: 24 nM
